Measured values as given in paper PMC12824264.
These are yes or no findings as the source states them, for the method shown. Some binding calls cover weakened binding; strength is not graded here. For part of these data: Tags and fused reporters may be left off the sequences shown.

T1: BMP10 growth factor domain (GFD) dimer (human) (UniProt O95393)
T1 sequence: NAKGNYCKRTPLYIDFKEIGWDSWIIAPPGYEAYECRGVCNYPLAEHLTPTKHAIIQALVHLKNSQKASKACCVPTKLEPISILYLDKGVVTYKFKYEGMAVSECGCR

T2: sENG-Fc (UniProt P17813)
T2 sequence: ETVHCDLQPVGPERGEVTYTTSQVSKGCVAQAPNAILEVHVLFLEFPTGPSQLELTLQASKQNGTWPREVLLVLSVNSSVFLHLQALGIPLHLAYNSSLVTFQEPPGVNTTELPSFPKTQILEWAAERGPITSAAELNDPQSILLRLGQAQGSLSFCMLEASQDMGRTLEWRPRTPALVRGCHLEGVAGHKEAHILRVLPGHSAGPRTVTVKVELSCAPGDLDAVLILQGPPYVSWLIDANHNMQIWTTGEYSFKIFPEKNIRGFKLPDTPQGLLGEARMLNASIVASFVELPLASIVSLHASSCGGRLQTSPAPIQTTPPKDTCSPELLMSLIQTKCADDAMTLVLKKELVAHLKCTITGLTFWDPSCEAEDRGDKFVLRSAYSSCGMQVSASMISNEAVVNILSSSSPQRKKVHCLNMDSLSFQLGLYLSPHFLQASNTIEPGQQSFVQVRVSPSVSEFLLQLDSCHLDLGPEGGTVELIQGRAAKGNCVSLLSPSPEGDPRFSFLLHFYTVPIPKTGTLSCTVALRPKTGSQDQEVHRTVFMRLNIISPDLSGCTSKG


How the values were obtained:
[1] = molecular target: T1, BMP10 growth factor domain (GFD) dimer (human); experiment: SEC; untagged monomeric BMPRII ECD or ActRIIB ECD with BMP9 or BMP10 GFD; physiological buffer conditions such as PBS; both purified
[2] = molecular target: T2, sENG-Fc; experiment: SPR; Biacore T200; sENG-Fc amine-coupled on a CM5 chip; BMP9 or BMP10 with and without ALK1 ECD; 10 mM HEPES pH 7.4, 150 mM NaCl, 3.4 mM EDTA, 0.5 mg/ml BSA, 0.005% P20, 25 C; both purified

| binding [1] | binding [2] | Binder |
| --- | --- | --- |
| no binding | – | activin receptor type IIB (ActRIIB) extracellular domain (domain or fragment, UniProt Q13705 24-115) AETRECIYYNANWELERTNQSGLERCEGEQDKRLHCYASWRNSSGTIELVKKGCWLDDFNCYDRQECVATEENPQVYFCCCEGNFCNERFTH |
| – | binds | BMP9 growth factor domain (GFD) dimer (ligand, UniProt Q9UK05 320-429) SAGAGSHCQKTSLRVNFEDIGWDSWIIAPKEYEAYECKGGCFFPLADDVTPTKHAIVQTLVHLKFPTKVGKACCVPTKLSPISVLYKDDMGVPTLKYHYEGMSVAECGCR |
| – | binds | BMP10 growth factor domain (GFD) dimer (ligand, UniProt O95393 317-424) NAKGNYCKRTPLYIDFKEIGWDSWIIAPPGYEAYECRGVCNYPLAEHLTPTKHAIIQALVHLKNSQKASKACCVPTKLEPISILYLDKGVVTYKFKYEGMAVSECGCR |
